Measured values as given in paper PMC12075841.
Results are given in words; binding and its absence hold for the method and conditions named. In cells and extracts the contact can be indirect. Some binding calls cover weakened binding; strength is not graded here.

Target: T1, Non-POU domain-containing octamer-binding protein (NONO), endogenous (human (endogenous in HCT116, MCF7, A549)) (UniProt Q15233)
T1 sequence: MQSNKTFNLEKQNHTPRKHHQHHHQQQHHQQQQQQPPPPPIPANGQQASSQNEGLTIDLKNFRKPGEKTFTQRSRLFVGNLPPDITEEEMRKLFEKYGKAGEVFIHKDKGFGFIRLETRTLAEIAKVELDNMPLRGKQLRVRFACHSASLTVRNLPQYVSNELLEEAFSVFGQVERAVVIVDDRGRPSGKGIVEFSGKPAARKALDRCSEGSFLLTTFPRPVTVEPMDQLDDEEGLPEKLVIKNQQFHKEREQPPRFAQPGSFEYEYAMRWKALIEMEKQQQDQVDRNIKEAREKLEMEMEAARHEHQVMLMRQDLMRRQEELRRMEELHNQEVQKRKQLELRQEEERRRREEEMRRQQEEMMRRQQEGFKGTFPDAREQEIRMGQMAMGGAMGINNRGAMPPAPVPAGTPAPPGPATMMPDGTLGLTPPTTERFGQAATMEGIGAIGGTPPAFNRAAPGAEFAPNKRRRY
Experiment: co-IP; anti-NONO antibody (normal rabbit IgG as control) and protein A/G agarose, overnight at 4 °C, HCT116 whole cell lysates in Pierce IP lysis buffer; washes with 150 mM NaCl, 20 mM HEPES pH 7.4, 0.1% NP-40; for SFPQ and PSPC1 the cells were untreated or treated with OSMI4 (24 h) or siOGT (48 h)

binding: binds
B1: O-GlcNAc transferase (OGT) (enzyme, UniProt O15294 1-1046)
chain: MASSVGNVADSTEPTKRMLSFQGLAELAHREYQAGDFEAAERHCMQLWRQEPDNTGVLLLLSSIHFQCRRLDRSAHFSTLAIKQNPLLAEAYSNLGNVYKERGQLQEAIEHYRHALRLKPDFIDGYINLAAALVAAGDMEGAVQAYVSALQYNPDLYCVRSDLGNLLKALGRLEEAKACYLKAIETQPNFAVAWSNLGCVFNAQGEIWLAIHHFEKAVTLDPNFLDAYINLGNVLKEARIFDRAVAAYLRALSLSPNHAVVHGNLACVYYEQGLIDLAIDTYRRAIELQPHFPDAYCNLANALKEKGSVAEAEDCYNTALRLCPTHADSLNNLANIKREQGNIEEAVRLYRKALEVFPEFAAAHSNLASVLQQQGKLQEALMHYKEAIRISPTFADAYSNMGNTLKEMQDVQGALQCYTRAIQINPAFADAHSNLASIHKDSGNIPEAIASYRTALKLKPDFPDAYCNLAHCLQIVCDWTDYDERMKKLVSIVADQLEKNRLPSVHPHHSMLYPLSHGFRKAIAERHGNLCLDKINVLHKPPYEHPKDLKLSDGRLRVGYVSSDFGNHPTSHLMQSIPGMHNPDKFEVFCYALSPDDGTNFRVKVMAEANHFIDLSQIPCNGKAADRIHQDGIHILVNMNGYTKGARNELFALRPAPIQAMWLGYPGTSGALFMDYIITDQETSPAEVAEQYSEKLAYMPHTFFIGDHANMFPHLKKKAVIDFKSNGHIYDNRIVLNGIDLKAFLDSLPDVKIVKMKCPDGGDNADSSNTALNMPVIPMNTIAEAVIEMINRGQIQITINGFSISNGLATTQINNKAATGEEVPRTIIVTTRSQYGLPEDAIVYCNFNQLYKIDPSTLQMWANILKRVPNSVLWLLRFPAVGEPNIQQYAQNMGLPQNRIIFSPVAPKEEHVRRGQLADVCLDTPLCNGHTTGMDVLWAGTPMVTMPGETLASRVAASQLTCLGCLELIAKNRQEYEDIAVKLGTDLEYLKKVRGKVWKQRISSPLFNTKQYTMELERLYLQMWEHYAAGNKPDHMIKPVEVTESA
